From paper PMC4617706
Results are given in words; binding and its absence hold for the method and conditions named. In cells and extracts the contact can be indirect. A yes stands for co-enrichment or nearness to the bait. Other partners may have been found.

Chains of the proteins cited; added tags and fusions are not shown. Lines headed by an entry give the natural chain unless they say otherwise; changes in a name come on top. A line that says so, or that is headed by a name, gives the form on record, which may keep a tag or linker.
GST-fused NINL^isoB_538-825aa (Q9Y2I6, form named): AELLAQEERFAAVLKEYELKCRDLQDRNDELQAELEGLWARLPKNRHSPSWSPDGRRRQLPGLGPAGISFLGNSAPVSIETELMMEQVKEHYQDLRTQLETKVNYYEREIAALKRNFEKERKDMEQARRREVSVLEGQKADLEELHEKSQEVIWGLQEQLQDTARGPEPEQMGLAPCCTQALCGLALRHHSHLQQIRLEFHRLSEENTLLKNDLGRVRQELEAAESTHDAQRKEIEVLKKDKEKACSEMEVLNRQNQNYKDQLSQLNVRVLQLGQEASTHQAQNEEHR
UniProt Q3ZCF0: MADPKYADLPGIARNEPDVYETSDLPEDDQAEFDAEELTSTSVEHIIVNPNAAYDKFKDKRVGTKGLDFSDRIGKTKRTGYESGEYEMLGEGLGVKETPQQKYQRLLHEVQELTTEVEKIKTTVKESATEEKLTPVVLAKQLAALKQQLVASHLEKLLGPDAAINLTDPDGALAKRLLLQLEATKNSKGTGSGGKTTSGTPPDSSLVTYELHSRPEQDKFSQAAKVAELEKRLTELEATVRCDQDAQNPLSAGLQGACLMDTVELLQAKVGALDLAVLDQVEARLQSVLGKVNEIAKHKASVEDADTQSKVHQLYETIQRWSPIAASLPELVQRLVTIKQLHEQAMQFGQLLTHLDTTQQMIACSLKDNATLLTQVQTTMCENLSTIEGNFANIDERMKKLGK
UniProt P79136: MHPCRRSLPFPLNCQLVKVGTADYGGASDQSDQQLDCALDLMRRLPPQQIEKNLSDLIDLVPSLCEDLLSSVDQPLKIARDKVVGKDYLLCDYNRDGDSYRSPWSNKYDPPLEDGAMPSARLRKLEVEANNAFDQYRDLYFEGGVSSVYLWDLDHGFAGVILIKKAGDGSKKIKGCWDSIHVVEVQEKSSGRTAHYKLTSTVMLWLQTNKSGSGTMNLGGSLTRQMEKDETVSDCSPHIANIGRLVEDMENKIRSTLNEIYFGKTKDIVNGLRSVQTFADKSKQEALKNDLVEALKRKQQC
UniProt Q3ZBD2: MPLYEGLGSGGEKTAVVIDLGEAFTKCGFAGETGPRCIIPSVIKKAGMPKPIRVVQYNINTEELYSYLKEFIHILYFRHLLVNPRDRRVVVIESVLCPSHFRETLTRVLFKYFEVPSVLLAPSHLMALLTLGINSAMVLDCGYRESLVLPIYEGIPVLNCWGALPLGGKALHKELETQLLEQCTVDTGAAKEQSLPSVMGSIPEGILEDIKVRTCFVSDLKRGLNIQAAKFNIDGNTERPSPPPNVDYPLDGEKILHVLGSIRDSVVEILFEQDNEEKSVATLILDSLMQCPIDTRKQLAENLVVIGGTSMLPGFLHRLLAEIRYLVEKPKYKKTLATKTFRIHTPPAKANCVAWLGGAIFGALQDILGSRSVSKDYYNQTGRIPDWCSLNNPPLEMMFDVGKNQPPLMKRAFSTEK
UniProt A4IFE3: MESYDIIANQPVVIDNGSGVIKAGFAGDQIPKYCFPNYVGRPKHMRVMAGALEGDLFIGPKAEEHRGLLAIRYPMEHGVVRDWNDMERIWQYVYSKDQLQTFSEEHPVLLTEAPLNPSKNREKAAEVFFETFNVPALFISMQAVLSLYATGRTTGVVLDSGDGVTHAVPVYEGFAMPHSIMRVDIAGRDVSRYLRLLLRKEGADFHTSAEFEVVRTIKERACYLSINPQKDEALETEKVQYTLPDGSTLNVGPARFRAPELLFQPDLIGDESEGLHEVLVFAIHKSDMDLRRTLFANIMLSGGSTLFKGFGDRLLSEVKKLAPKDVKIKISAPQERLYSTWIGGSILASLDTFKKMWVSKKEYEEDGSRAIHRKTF

Target: GST-fused NINL^isoB_538-825aa (human) (UniProt Q9Y2I6)
Test: affinity purification with mass spectrometry; GST pull-down from bovine retinal extracts; GST fusion immobilized on glutathione sepharose 4B beads, overnight at 4°C; elution with 100 mM GSH; LC-MS/MS; n = 4, GST alone n = 3; only the target purified

binding	Substance
binds	DCTN2 (bovine retina) (from UniProt Q3ZCF0 1-403)
binds	CAPZB (bovine retina) (from UniProt P79136 1-301)
binds	ARP10 (bovine retina) (from UniProt Q3ZBD2 1-417)
binds	ARP1B (bovine retina) (from UniProt A4IFE3 1-376)
